Source: PubChem BioAssay AID1347423 (Functional Genomics Laboratory (NCATS/FGL), 2020)
The campaign covered roughly 52,000 sequences. About 210 (0.4%) were called active.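 How the source made its calls: active means gene whose silencing raises cell survival under the drug, median off-target-corrected z-score across its silencing RNAs 2 or more; inactive means the rest.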 Some of the results follow.

Assay: Resistance to Poly (ADP-Ribose) Polymerase inhibitor: Gene Identification via Genome-wide siRNA Screen
Settings: mouse BRCA2 R2336H ES cells, olaparib, CellTiter-Glo viability; stronger effect = higher value
Procedure, shortened: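 Mouse BRCA2 R2336H ES cells were reverse-transfected with siRNA (20 nM final), treated at 48 h with 500 nM olaparib, and read by CellTiter-Glo after 72 h. Scores: MAD-based z per siRNA, median per gene, seed off-target correction.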

Sequence	z-score
GCUUGGUCAUUUUAAUAGGTT against AW125441	inactive: -0.1
GCUGGGUGUAAUGUUUCCUTT against E130107N23Rik	inactive: -0.896
CCUGUAAUGAGUAUGACAUTT against Commd10	inactive: -0.271
ACUGUUGCAGCCUCUCUCATT against 1700029I15Rik	inactive: 1.31
CCGUACAAGAAAAAGUCGUTT against Srrm1	inactive: 0.248
GGAGCAGCUAGACUUCUUUTT against Abhd8	inactive: 0.203
GCAAAACACACUGAUGGUGTT against Stx16	inactive: -0.292
GGAAAGAUCUACGAGAUCUTT against Unc5a	inactive: 1.36
CGCAUCAUAAUGAUUGUGATT against Matn2	inactive: 1.04
GUCAGAGAAGCAUCCAGGATT against MGC65558	inactive: -2.41
GCGAAAACUUGGGAUAUUUTT against Mtmr1	inactive: -1.25
GCAAUGGUUGAGUUUGAGUTT against 2810036L13Rik	inactive: 0.372
GGUACUUACAAUUUCAUCATT against 1500019C06Rik	inactive: 2.11
GGAAAAAAUGGAACCAUUGTT against Rpa3	inactive: -2.35
GGUUCCAUAGCAGACAAAATT against Mrpl24	inactive: -1.99
GCUUUACCUGCAUAUUCCATT against Nradd	inactive: -1.4
GCUGCAGGAUAUCGCAAAGTT against Olfr1454	inactive: 1.2
GGCUGUGAAAGCAUAUGUGTT against Foxp2	inactive: -0.296
GGUCCAAGCCUUUUCUAGATT against 0610031J06Rik	inactive: 1.72
GGUGGAACCCAAUGACACCTT against Lass5	inactive: 0.287
UAUUUCUCCCUUGCUGGUATT against MGC118210	inactive: 4.46
GCCUUGACCUCAUACCUUGTT against 2410030K01Rik	inactive: -0.299
GUUUGAUGAUCACUGGGUCTT against Aqp2	inactive: 0.748

Sequence	z-score
GGUCUUCUAUCUGAAAAUGTT against Ywhaq	inactive: 0.689
GGCAUGUGCAUUUGCUACGTT against Lama1	inactive: 1.33
GGCAUACCAAAAUCCAUUUTT against Egr1	inactive: -0.237
CGAAACACACUGGUAAGUGTT against Col2a1	inactive: -0.86
GGUUGAGAAGAAGAAGAAATT against Rpl6	inactive: -3.49
GGUACAACAAAAAUGUGACTT against V1rg2	inactive: -0.476
GCUAACAGUUCAUAGAAAATT against Nxn	inactive: 0.814
GGAGCUCAACGCAUUUUUCTT against Neurod2	inactive: 0.726
CGAGUGCUUCUCUUGACAUTT against Mrpl22	inactive: -0.887
GCACAGAGUCUAGUGUUUATT against Ube2j2	inactive: 0.778
GCAAUAAUGGCAAUUACGGTT against Slc35f4	inactive: -0.432
GGUGAACUGGAGUCAUUUATT against Cebpz	inactive: -0.773
GGCUGAAAAUGCAUGUAUGTT against Ptger1	inactive: 1.38
GCCCUGGAGUUUAUGAGGUTT against BC052055	inactive: 0.923
CCUGGUACAUCUCUGUUACTT against Olfr449	inactive: 0.28
GGUUUCAUCCUGGUGUAUATT against Rap2c	inactive: 0.475
CCAAGUCCAUUUCAUACUCTT against Ormdl3	inactive: 0.467
GGAUAUAUUGAAAUGCCCATT against Zfp161	inactive: -0.0742
CCUUCUAGUUUGCCUCUGGTT against Olfr877	inactive: -1.68
GCCAGUAGUAGUAGAAUAATT against LOC225594	inactive: -2.3
GGGAAAGCACUCCAACACATT against BC037594	inactive: 1.25
GGUUUUGUUGCAUGGUAAGTT against Ubb	inactive: -1.61
CCGACUCCUACAGAUUAUUTT against Amac	inactive: -1.11

Quoted at random: 4 entries already listed.
Sequence	z-score
CCUUCUAGUUUGCCUCUGGTT against Olfr877	inactive: -1.68
CGAGUGCUUCUCUUGACAUTT against Mrpl22	inactive: -0.887
GCCAGUAGUAGUAGAAUAATT against LOC225594	inactive: -2.3
CGAAACACACUGGUAAGUGTT against Col2a1	inactive: -0.86

Additional results.

Sequence	z-score
AAAUCCUGUUAGGGAGUGUTT against Olfr57	inactive: 0.672
GGCUAGCUUAUCAAGCAACTT against AW319487	inactive: 0.38
GGCAUUUCUCGACCUAUGGTT against Hoxc6	inactive: 0.898
GAGCUGUGAAUGCCUGUGGTT against Lyzs	inactive: -1.72
GCAUAUUGAGGAAUUCCUATT against 4831416G18Rik	inactive: 1.09
GGCUUCAAGACUUGUGUGATT against Rdh1	inactive: 0.00528
GUCCUUCUUCUUUGGGUUGTT against Olfr1356	inactive: -1.2
GCUGAUGUGAAUGGCUCACTT against Gmeb2	inactive: -1.14
GGAAGGAGAAUAUUUGACATT against D430044G18Rik	inactive: 1.57
GCUCAUCAUGUGAAACUUUTT against Sara2	inactive: -0.0401
GCAGGCUCGCUGUAACUACTT against 9430098E02Rik	inactive: -0.468
GGAAAAGGUGGCCUACACATT against BC049711	inactive: -0.593
GGAAGACCAAUAGUACUGCTT against Il1rn	inactive: -0.596
GGCUUUGAGAGUGGUGUAUTT against Sgsh	inactive: -1.1
CCUGUAUACGCAGAACACUTT against Gpc1	inactive: 0.198
GCGAACAUGUGUUUUACGUTT against Hist1h4h	inactive: -0.155
GGGUUUGUUAAGUCCUGUGTT against Mlze	inactive: -2.93
GCCACAAGUUAAUGCUCUUTT against Rfx5	inactive: 0.144
GCCGAUUCUUCAAUGUGCGTT against 2610028I09Rik	inactive: -0.0822
GCUAAUACACCUUAUGAGATT against 2700084L22Rik	inactive: 1.2
GCCUUGAAUACCACAUUUCTT against Arl10a	inactive: -2.1
